Assay results as given in the supplement of paper PMC10849652.
This is one part of the list. Residues, ends and D or L forms follow the SMILES beside them. *: point of attachment. Cbz = O=C(OCc1ccccc1)*

Protein sequences, listed by entry. Tags and fused reporters are not part of them. Lines headed by an entry give the natural chain unless they say otherwise; changes in a name come on top.
UniProt P56277: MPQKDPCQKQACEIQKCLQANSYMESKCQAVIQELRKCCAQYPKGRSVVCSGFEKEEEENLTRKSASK
UniProt O95628: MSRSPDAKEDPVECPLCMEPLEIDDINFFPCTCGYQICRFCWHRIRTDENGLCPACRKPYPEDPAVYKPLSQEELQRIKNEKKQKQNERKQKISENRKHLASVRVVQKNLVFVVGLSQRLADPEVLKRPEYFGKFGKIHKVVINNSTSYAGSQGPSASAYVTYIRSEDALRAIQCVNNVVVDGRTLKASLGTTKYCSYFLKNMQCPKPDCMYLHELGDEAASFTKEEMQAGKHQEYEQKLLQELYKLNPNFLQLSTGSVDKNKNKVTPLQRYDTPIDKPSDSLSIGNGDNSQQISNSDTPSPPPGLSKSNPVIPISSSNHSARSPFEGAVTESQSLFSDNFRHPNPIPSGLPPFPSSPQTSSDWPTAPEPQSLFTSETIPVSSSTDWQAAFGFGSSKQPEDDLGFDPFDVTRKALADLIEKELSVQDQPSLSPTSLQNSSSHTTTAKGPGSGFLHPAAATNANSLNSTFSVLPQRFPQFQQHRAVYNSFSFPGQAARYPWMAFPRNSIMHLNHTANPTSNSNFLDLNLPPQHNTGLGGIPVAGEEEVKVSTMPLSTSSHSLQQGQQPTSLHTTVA
UniProt P51788: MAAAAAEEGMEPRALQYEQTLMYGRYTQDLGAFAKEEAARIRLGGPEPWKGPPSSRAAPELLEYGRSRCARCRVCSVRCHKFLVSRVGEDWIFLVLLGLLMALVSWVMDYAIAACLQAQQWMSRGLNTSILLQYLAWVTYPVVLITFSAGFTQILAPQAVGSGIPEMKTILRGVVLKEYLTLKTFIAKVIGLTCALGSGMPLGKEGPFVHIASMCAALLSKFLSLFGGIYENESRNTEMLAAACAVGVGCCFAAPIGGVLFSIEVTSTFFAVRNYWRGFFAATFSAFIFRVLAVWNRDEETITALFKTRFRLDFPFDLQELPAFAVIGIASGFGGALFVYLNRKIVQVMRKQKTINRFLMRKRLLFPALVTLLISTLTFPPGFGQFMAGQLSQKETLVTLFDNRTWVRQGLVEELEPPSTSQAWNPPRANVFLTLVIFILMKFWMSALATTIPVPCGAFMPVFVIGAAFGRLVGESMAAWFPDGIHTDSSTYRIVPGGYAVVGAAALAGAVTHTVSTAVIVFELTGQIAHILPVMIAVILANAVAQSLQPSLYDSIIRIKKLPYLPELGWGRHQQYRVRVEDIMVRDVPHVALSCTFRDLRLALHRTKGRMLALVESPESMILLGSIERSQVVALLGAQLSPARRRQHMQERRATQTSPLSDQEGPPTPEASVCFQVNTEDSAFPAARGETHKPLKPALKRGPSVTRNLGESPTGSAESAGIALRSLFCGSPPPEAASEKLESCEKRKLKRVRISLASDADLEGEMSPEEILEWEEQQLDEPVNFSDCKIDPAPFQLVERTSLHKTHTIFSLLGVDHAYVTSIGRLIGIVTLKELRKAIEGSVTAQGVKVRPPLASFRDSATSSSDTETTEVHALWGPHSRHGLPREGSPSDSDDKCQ
UniProt Q9UFF9, whole entry, looked up: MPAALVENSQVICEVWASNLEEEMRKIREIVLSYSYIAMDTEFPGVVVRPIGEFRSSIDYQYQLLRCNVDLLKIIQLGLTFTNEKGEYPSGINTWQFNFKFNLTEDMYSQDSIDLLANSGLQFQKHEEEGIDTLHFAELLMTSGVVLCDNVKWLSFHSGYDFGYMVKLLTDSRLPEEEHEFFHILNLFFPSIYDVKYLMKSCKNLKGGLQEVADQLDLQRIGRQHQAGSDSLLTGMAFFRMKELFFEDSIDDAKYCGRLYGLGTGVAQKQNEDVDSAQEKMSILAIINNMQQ
UniProt Q86WW8: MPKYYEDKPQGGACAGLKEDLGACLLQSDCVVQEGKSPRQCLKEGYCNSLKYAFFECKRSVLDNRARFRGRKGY
UniProt Q9NYJ1, whole entry, looked up: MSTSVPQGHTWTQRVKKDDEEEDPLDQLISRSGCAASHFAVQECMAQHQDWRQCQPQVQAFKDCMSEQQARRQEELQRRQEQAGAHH
UniProt Q9UBY8, whole entry, looked up: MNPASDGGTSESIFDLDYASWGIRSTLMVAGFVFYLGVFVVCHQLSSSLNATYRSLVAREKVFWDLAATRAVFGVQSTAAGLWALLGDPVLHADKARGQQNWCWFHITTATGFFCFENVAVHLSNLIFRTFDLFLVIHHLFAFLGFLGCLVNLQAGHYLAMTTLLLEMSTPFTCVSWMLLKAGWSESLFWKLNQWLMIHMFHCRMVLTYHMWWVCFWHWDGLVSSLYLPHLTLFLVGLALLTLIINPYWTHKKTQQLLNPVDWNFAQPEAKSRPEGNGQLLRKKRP
UniProt Q9H9E3: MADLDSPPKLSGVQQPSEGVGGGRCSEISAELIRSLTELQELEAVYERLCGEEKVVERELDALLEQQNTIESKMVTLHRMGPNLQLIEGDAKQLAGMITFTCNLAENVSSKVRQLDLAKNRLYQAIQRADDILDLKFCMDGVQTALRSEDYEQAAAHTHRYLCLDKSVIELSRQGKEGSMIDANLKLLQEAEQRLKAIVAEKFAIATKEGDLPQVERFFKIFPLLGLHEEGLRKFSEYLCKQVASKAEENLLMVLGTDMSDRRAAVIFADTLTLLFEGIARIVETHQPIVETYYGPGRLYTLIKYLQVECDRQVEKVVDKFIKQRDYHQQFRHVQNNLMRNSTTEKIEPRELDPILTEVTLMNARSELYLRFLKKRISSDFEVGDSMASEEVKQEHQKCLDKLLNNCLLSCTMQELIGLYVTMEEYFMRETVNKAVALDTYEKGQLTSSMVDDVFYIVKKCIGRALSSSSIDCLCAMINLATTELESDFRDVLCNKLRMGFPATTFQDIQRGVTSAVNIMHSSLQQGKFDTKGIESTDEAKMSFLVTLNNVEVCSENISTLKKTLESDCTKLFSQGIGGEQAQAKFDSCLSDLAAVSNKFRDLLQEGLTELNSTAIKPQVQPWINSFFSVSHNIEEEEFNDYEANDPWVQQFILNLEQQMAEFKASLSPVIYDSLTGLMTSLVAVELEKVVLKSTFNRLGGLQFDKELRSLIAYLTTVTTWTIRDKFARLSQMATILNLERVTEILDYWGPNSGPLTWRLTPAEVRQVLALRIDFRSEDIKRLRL
UniProt Q15417: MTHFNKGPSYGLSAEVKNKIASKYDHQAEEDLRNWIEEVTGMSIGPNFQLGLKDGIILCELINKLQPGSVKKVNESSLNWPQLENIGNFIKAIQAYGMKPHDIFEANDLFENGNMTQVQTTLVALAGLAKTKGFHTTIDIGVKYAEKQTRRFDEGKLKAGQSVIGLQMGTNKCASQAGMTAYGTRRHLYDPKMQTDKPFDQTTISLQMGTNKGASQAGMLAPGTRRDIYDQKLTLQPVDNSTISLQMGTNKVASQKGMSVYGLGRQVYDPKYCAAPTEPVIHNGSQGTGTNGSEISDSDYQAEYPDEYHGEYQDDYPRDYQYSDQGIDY
UniProt Q96MX0: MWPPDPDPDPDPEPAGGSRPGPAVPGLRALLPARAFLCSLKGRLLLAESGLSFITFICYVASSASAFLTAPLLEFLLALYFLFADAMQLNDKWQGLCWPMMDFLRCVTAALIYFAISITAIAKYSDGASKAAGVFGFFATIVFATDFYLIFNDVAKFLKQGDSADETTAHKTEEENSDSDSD
UniProt Q9Y2V7: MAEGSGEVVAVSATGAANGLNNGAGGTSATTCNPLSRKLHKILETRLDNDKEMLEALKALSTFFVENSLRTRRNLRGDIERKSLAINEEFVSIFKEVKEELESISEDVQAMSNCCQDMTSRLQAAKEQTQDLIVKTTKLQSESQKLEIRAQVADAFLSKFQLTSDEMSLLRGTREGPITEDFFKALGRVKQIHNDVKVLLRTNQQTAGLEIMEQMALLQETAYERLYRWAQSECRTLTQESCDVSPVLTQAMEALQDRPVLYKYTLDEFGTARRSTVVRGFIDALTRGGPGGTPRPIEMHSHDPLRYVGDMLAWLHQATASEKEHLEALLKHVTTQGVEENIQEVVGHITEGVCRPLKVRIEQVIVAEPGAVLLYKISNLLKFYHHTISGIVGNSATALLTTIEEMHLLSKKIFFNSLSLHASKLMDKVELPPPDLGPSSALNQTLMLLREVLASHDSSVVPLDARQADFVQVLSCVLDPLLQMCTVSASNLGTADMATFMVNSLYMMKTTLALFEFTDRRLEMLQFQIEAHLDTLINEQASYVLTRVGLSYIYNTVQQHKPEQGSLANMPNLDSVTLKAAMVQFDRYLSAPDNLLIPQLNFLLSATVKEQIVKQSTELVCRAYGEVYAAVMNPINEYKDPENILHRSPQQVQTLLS
UniProt Q9H8M5: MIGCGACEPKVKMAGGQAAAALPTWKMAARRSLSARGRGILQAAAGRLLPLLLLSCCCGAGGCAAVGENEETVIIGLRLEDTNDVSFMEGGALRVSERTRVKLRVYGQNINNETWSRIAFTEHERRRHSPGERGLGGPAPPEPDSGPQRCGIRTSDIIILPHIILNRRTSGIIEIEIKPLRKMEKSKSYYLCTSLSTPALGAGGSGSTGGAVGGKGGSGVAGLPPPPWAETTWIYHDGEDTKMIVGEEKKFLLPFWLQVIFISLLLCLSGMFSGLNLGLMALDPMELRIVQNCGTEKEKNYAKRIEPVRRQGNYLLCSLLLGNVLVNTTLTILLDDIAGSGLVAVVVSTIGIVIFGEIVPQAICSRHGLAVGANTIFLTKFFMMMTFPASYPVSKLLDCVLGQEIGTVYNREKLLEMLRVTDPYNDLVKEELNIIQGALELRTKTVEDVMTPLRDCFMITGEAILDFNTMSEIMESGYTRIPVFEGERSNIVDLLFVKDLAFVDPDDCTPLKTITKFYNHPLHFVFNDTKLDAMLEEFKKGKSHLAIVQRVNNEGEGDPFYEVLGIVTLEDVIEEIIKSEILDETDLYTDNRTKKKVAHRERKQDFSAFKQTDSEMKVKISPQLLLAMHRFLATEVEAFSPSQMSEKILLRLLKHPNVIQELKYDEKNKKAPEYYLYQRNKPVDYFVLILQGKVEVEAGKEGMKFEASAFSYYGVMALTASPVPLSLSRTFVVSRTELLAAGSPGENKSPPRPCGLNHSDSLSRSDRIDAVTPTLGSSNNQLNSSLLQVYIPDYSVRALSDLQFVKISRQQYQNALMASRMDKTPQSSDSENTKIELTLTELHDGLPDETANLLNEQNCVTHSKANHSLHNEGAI
UniProt O75122: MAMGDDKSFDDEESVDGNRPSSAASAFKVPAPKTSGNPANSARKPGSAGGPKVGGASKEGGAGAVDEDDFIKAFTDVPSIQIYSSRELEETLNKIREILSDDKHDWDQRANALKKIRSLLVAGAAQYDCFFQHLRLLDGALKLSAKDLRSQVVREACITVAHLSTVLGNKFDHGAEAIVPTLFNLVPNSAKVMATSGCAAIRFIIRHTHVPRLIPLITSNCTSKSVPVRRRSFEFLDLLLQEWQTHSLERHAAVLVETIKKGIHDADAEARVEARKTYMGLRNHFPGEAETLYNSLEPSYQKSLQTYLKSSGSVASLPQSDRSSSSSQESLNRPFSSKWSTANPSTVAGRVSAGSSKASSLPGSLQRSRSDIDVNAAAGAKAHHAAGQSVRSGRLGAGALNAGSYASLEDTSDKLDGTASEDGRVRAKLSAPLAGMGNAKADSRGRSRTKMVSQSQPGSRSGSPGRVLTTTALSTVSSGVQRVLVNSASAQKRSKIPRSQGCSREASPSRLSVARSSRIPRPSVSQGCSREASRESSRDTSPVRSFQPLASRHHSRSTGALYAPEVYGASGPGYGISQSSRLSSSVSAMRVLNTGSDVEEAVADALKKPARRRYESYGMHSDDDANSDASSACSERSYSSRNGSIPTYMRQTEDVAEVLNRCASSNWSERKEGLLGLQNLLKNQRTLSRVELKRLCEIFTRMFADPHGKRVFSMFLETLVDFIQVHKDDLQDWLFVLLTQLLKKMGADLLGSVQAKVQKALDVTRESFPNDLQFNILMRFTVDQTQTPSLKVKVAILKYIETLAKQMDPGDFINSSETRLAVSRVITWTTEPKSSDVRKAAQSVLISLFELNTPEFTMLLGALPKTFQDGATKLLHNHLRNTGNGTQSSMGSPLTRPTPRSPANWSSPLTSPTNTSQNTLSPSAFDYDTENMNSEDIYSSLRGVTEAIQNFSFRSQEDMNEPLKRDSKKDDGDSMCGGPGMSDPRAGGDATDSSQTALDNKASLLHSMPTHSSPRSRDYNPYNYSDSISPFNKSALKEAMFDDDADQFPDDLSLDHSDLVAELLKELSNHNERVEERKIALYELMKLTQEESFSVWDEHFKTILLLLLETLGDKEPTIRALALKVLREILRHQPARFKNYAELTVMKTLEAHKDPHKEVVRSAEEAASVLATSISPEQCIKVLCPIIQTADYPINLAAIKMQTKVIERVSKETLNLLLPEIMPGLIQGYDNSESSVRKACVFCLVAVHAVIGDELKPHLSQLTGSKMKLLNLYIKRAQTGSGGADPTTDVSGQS

Experiments:
Assay in all cases: log2 fold change, soluble protein after heating vs DMSO (PISA); higher = thermal stabilisation; K562 cells, 10 uM, 30 min; active = over 0.2 and 3.5 SD of the protein, either way, in both replicates (recomputed)
erlotinib = compound: C#Cc1cccc(Nc2ncnc3cc(OCCOC)c(OCCOC)cc23)c1 [erlotinib]
In short: (§1)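 Aliquots of K562 cells (2×10^6 cells/mL) treated with 10 μM compound for 30 min were heated for 3 min over 48°C-58°C. After pooling and extraction in PBS with 0.5% NP-40 at 4°C, soluble protein from a 21,000xg, 90 min spin was quantified by TMTpro 16plex LC-MS/MS with channel sums equalised. Thermal stability is expressed against control samples, from duplicates, as a log2 fold change.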

[1] = compound: C/C(=N\NC(=O)C1=CC(=CC=C1)S(=O)(=O)N2CCOCC2)/C3=C(C=CC(=C3)Cl)O
In short: as §1

[2] = compound: C1=CC(=CC=C1C2=NC3=C(N2)C=C(C=C3)C(=O)N)OC4=CC=C(C=C4)Cl
In short: as §1

[3] = compound: C1=CC2=C(C=CC(=C2)/C=C\3/C(=O)NC(=NCC4=CC=CS4)S3)N=C1
In short: as §1

[4] = compound: C1=CC=C(C=C1)C2=NC(=C(N2)C3=CC=NC=C3)C4=CC(=C(C=C4)Cl)O
In short: as §1

[5] = compound: C1=CC=C2C(=C1)C3=NNC4=CC=CC(=C43)C2=O
In short: as §1

IRAK-1-4 Inhibitor I = compound: C1COCCN1CCN2C3=CC=CC=C3N=C2NC(=O)C4=CC(=CC=C4)[N+](=O)[O-] [IRAK-1-4 Inhibitor I]
In short: as §1

[6] = compound: CC(=O)c1cnc2ccc(-c3cc(Cl)c(O)c(Cl)c3)nc2c1N[C@H]1CC[C@H](CN(C)C)CC1
In short: as §1

ralimetinib = compound: CC(C)(C)Cn1c(N)nc2ccc(-c3[nH]c(C(C)(C)C)nc3-c3ccc(F)cc3)nc21 [ralimetinib]
In short: as §1

[7] = compound: CC(C)C1=C2N=C(C=C(N2N=C1)NCC3=CC=CC=C3)NCCCCCCN
In short: as §1

[8] = compound: CC(C)C[C@@H](C=O)NC(=O)[C@H](CC(C)C)NC(=O)[C@H](CC(C)C)NC(=O)OCc1ccccc1
In short: as §1

pinometostat = compound: CC(C)N(C[C@H]1O[C@@H](n2cnc3c(N)ncnc32)[C@H](O)[C@@H]1O)[C@H]1C[C@@H](CCc2nc3cc(C(C)(C)C)ccc3[nH]2)C1 [pinometostat]
In short: as §1

[9] = compound: C1=CC2=NC=CN=C2C=C1/C=C/3\C(=O)NC(=O)S3
In short: as §1

[10] = compound: C1CCN(C1)C(=O)NC2=CC=CC(=C2)NC3=NC=C(C(=N3)NCCC4=CN=CN4)Br
In short: as §1

[11] = compound: C1CN(CCC1(CC2=CC=C(C=C2)Cl)N)C3=NC=NC4=C3C=CN4
In short: as §1

ibrutinib = compound: C=CC(=O)N1CCC[C@@H](n2nc(-c3ccc(Oc4ccccc4)cc3)c3c(N)ncnc32)C1 [ibrutinib]
In short: as §1

[12] = compound: CC1=C(C2=C(C=C1)C(=O)C3=CC=CC=C3N2CCCN)C
In short: as §1

[13] = compound: C1=CC(=C(C=C1Cl)C2=NC3=NC=CN=C3C(=N2)NC4=CC=NC=C4)F
In short: as §1

[14] = compound: CC(C)(O)CC(=O)NCCn1ccc2ncnc(Nc3ccc(Oc4cccc(C(F)(F)F)c4)c(Cl)c3)c21
In short: as §1

[15] = compound: CC1=C(C(CC(=O)N1)C2=CC=C(C=C2)C(F)(F)F)C(=O)NC3=C(C=C4C(=C3)C=NN4)F
In short: as §1

| Target | log2 fold change (erlotinib) | log2 fold change [1] | log2 fold change [2] | log2 fold change [3] | log2 fold change [4] | log2 fold change [5] | log2 fold change (IRAK-1-4 Inhibitor I) | log2 fold change [6] | log2 fold change (ralimetinib) | log2 fold change [7] | log2 fold change [8] | log2 fold change (pinometostat) | log2 fold change [9] | log2 fold change [10] | log2 fold change [11] | log2 fold change (ibrutinib) | log2 fold change [12] | log2 fold change [13] | log2 fold change [14] | log2 fold change [15] |
| --- | --- | --- | --- | --- | --- | --- | --- | --- | --- | --- | --- | --- | --- | --- | --- | --- | --- | --- | --- | --- |
| CMC4 (UniProt P56277) | inactive: 0.139 | inactive: 0.048 | inactive: -0.106 | inactive: 0.122 | inactive: 0.067 | inactive: 0.043 | inactive: -0.083 | inactive: -0.098 | inactive: 0.024 | inactive: 0.037 | inactive: -0.055 | inactive: -0.058 |  |  |  |  |  |  |  |  |
| CNOT4 isoform 9 (UniProt O95628) | inactive: -0.011 | inactive: -0.022 | inactive: 0.047 | inactive: 0.089 | inactive: 0.053 | inactive: 0.245 | inactive: 0.09 | inactive: 0.189 | inactive: 0.128 | inactive: -0.068 | inactive: 0.015 | inactive: -0.028 | inactive: 0.018 | inactive: 0.175 | inactive: 0.455 | inactive: 0.089 | inactive: 0.202 |  |  |  |
| CKAP2 (UniProt Q8WWK9) | inactive: -0.024 |  | inactive: 0.09 |  | inactive: -0.119 |  | inactive: -0.272 |  | inactive: 0.36 | inactive: -0.549 | inactive: 0.075 | inactive: 0.234 |  | inactive: 0.023 | inactive: -0.009 |  | inactive: 0.008 | inactive: -0.558 | inactive: 0.038 | inactive: 0.029 |
| CLCN2 (UniProt P51788) | inactive: 0.017 | inactive: 0.117 | inactive: 0.029 | inactive: 0.026 | inactive: 0.071 | inactive: -0.076 | inactive: -0.047 | inactive: -0.078 | inactive: 0.014 | inactive: -0.128 | inactive: 0.003 | inactive: -0.035 | inactive: -0.041 |  |  |  |  | inactive: -0.092 | inactive: 0.076 | inactive: -0.069 |
| CNOT8 (UniProt Q9UFF9) | inactive: 0.007 |  | inactive: -0.036 |  | inactive: 0.008 |  | inactive: -0.015 |  | inactive: -0.004 | inactive: -0.059 | inactive: -0.019 | inactive: 0.105 | inactive: 0.083 | inactive: 0.029 | inactive: 0.155 | inactive: 0.043 | inactive: -0.076 | inactive: -0.134 | inactive: -0.043 | inactive: 0.017 |
| COG7 (UniProt P83436) | inactive: -0.008 | inactive: 0.087 | inactive: -0.235 | inactive: -0.148 | inactive: 0.083 | inactive: -0.012 |  | inactive: 0.397 | inactive: 0.037 | inactive: -0.195 | inactive: 0.08 |  |  |  |  |  |  | inactive: -0.032 | inactive: 0.086 |  |
| COA5 (UniProt Q86WW8) | inactive: 0.136 | inactive: -0.008 | inactive: -0.026 | inactive: 0.073 |  | inactive: -0.092 | inactive: -0.136 | inactive: -0.077 |  | inactive: -0.088 |  | inactive: 0.037 |  |  |  |  |  | inactive: -0.021 | inactive: -0.047 |  |
| CLN3 (UniProt Q13286) | inactive: 0 |  | inactive: 0.162 |  | inactive: -0.05 |  | inactive: 0.106 |  | inactive: -0.05 | active: -0.532 | inactive: -0.043 | inactive: -0.113 | inactive: 0.117 | inactive: 0.055 | inactive: 0.026 |  | inactive: -0.147 | inactive: 0.025 | inactive: -0.011 |  |
| COA4 isoform 2 (UniProt Q9NYJ1) | inactive: -0.104 | inactive: -0.053 | inactive: 0.005 | inactive: 0.1 | inactive: 0.032 | inactive: 0.318 | inactive: -0.169 | inactive: -0.052 | inactive: -0.263 | inactive: 0.112 | inactive: 0 | inactive: -0.077 | inactive: 0.183 |  |  | inactive: 0.01 |  | inactive: 0.355 | inactive: -0.07 | inactive: 0.1 |
| CLN8 (UniProt Q9UBY8) | inactive: 0.012 | inactive: 0.198 | inactive: 0.01 | inactive: 0.212 | inactive: -0.208 | inactive: -0.06 |  | inactive: -0.164 | inactive: 0.643 | inactive: 0.017 | inactive: 0.139 |  | inactive: 0.099 | inactive: 0.003 | inactive: -0.171 |  | inactive: 0.138 |  |  |  |
| COG4 (UniProt Q9H9E3) | inactive: 0.091 |  | inactive: -0.062 |  | inactive: -0.003 |  | inactive: -0.152 |  | inactive: 0.126 | inactive: -0.202 | inactive: 0.136 | inactive: 0.192 |  | inactive: -0.155 | inactive: -0.437 |  | inactive: -0.223 | inactive: -0.008 | inactive: -0.103 | inactive: 0.043 |
| CNN3 (UniProt Q15417) | inactive: 0.013 | inactive: 0.158 | inactive: -0.088 | inactive: 0.054 |  | inactive: 0.016 |  | inactive: -0.007 |  | inactive: -0.17 |  |  | inactive: 0.056 | inactive: 0.041 | inactive: -0.116 | inactive: -0.067 | inactive: 0.012 | inactive: 0.064 | inactive: -0.138 |  |
| CMTM3 (UniProt Q96MX0) | inactive: 0.032 | inactive: -0.055 | inactive: -0.044 | inactive: 0.034 |  | inactive: -0.007 | inactive: 0.021 | inactive: 0.003 |  | inactive: 0.068 |  | inactive: 0 | inactive: 0.066 | inactive: 0.002 | inactive: 0.051 | inactive: 0.014 | inactive: -0.062 | inactive: 0.166 | inactive: -0.108 |  |
| CLCNKB (UniProt P51801) | inactive: 0.014 | inactive: 0.014 | inactive: -0.02 | inactive: -0.079 |  | inactive: -0.19 | inactive: -0.002 | inactive: -0.021 |  | inactive: -0.042 |  | inactive: 0.034 |  |  |  |  |  | inactive: 0.267 | inactive: -0.122 | inactive: 0.071 |
| COG6 (UniProt Q9Y2V7) | inactive: 0.045 | inactive: -0.033 | inactive: -0.034 | inactive: 0.174 | inactive: -0.179 | inactive: -0.007 |  | inactive: 0.126 | inactive: 0.037 | inactive: -0.211 | inactive: -0.162 |  |  | inactive: -0.243 | inactive: -0.282 |  | inactive: 0 |  |  |  |
| CLCN6 isoform 5 (UniProt P51797) | inactive: 0.065 | inactive: 0.009 | inactive: 0.152 | inactive: -0.047 | inactive: 0.074 | inactive: 0.056 | inactive: -0.001 | inactive: 0.062 | inactive: -0.016 | inactive: -0.159 | inactive: 0.065 | inactive: -0.026 | inactive: 0.01 |  |  |  |  | inactive: -0.224 | inactive: 0.016 | inactive: 0.063 |
| CLIP1 isoform 2 (UniProt P30622) | inactive: -0.117 |  | inactive: 0.156 |  | inactive: -0.045 |  |  |  | inactive: 0.016 | inactive: -0.017 | inactive: 0.072 |  | inactive: 0.058 |  |  |  |  | inactive: 0.057 | inactive: 0.041 | inactive: -0.004 |
| CNNM2 (UniProt Q9H8M5) | inactive: 0.067 |  | inactive: -0.004 |  | inactive: -0.062 |  | inactive: -0.034 |  | inactive: 0.072 | inactive: 0.118 | inactive: -0.117 | inactive: 0.015 | inactive: 0.033 | inactive: -0.061 | inactive: -0.112 | inactive: 0.107 | inactive: 0.177 | inactive: 0.022 | inactive: -0.099 | inactive: -0.087 |
| CLASP2 (UniProt O75122) | inactive: 0.089 | inactive: -0.078 | inactive: 0.082 | inactive: -0.211 | inactive: 0.286 | inactive: -0.106 | inactive: 0.027 | inactive: -0.852 | inactive: -0.067 | inactive: 0.086 | inactive: 0.161 | inactive: 0.057 | inactive: 0.133 |  |  |  |  |  |  |  |
| CNOT6 (UniProt Q9ULM6) | inactive: 0.012 | inactive: -0.019 | inactive: -0.157 | inactive: -0.089 | inactive: -0.169 | inactive: 0.055 |  | inactive: 0.018 | inactive: -0.055 | inactive: -0.202 | inactive: 0.18 |  | inactive: -0.2 |  |  | inactive: -0.04 |  |  |  | inactive: -0.064 |

A second format for some results above.
Target,log2 fold change (erlotinib),log2 fold change [1],log2 fold change [2],log2 fold change [3],log2 fold change [4],log2 fold change [5],log2 fold change (IRAK-1-4 Inhibitor I),log2 fold change [6],log2 fold change (ralimetinib),log2 fold change [7],log2 fold change [8],log2 fold change (pinometostat),log2 fold change [9],log2 fold change [10],log2 fold change [11],log2 fold change (ibrutinib),log2 fold change [12],log2 fold change [13],log2 fold change [14],log2 fold change [15]
COG7 (UniProt P83436),inactive: -0.008,inactive: 0.087,inactive: -0.235,inactive: -0.148,inactive: 0.083,inactive: -0.012,,inactive: 0.397,inactive: 0.037,inactive: -0.195,inactive: 0.08,,,,,,,inactive: -0.032,inactive: 0.086,
COA5 (UniProt Q86WW8),inactive: 0.136,inactive: -0.008,inactive: -0.026,inactive: 0.073,,inactive: -0.092,inactive: -0.136,inactive: -0.077,,inactive: -0.088,,inactive: 0.037,,,,,,inactive: -0.021,inactive: -0.047,
